The effect of the compound repeats well; differences between the knockouts mostly do not.
Tested on: HCC-38
Test: relative cell number vs DMSO control (72 h) (% of DMSO); higher = less growth inhibition (more cells)
Description: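 QMAP-Seq: a pool of 5 breast cancer cell lines (ZR-75-1, SKBR3, HCC-38, MDA-MB-231, BT-20), each carrying 12 doxycycline-inducible Cas9 sgRNA perturbations (11 knockouts plus non-targeting sgNT), was treated with compounds for 72 h at four 10-fold doses (10 nM-10 uM or 1 nM-1 uM range). Barcodes were amplified and sequenced, and cell number was interpolated from 293T spike-in standard curves. The result is expressed as % of the median of DMSO wells. Two biological replicates.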

C#Cc1cccc(Nc2ncnc3cc(OCCOC)c(OCCOC)cc23)c1 [Erlotinib]
Details | relative cell number
sgRNA knockout: sgATF3, 10 nM | 111
sgRNA knockout: sgATF3, 100 nM | 87.8
sgRNA knockout: sgATF3, 1000 nM | 105
sgRNA knockout: sgATF3, 10000 nM | 96.5
sgRNA knockout: sgATF4, 10 nM | 112
sgRNA knockout: sgATF4, 100 nM | 94.2
sgRNA knockout: sgATF4, 1000 nM | 103.1
sgRNA knockout: sgATF4, 10000 nM | 87.62
sgRNA knockout: sgATF6, 10 nM | 107
sgRNA knockout: sgATF6, 100 nM | 101
sgRNA knockout: sgATF6, 1000 nM | 116
sgRNA knockout: sgATF6, 10000 nM | 97.1
sgRNA knockout: sgATG7, 10 nM | 107
sgRNA knockout: sgATG7, 100 nM | 87.9
sgRNA knockout: sgATG7, 1000 nM | 104
sgRNA knockout: sgATG7, 10000 nM | 90.5
sgRNA knockout: sgERN1, 10 nM | 108
sgRNA knockout: sgERN1, 100 nM | 90
sgRNA knockout: sgERN1, 1000 nM | 105
sgRNA knockout: sgERN1, 10000 nM | 99.1
sgRNA knockout: sgHSF1, 10 nM | 125
sgRNA knockout: sgHSF1, 100 nM | 85.5
sgRNA knockout: sgHSF1, 1000 nM | 107
sgRNA knockout: sgHSF1, 10000 nM | 97.7
sgRNA knockout: sgHSF2, 10 nM | 117
sgRNA knockout: sgHSF2, 100 nM | 97.3
sgRNA knockout: sgHSF2, 1000 nM | 102
sgRNA knockout: sgHSF2, 10000 nM | 103
sgRNA knockout: sgKEAP1, 10 nM | 128.2
sgRNA knockout: sgKEAP1, 100 nM | 99.1
sgRNA knockout: sgKEAP1, 1000 nM | 101
sgRNA knockout: sgKEAP1, 10000 nM | 84.8
sgRNA knockout: sgNFE2L2, 10 nM | 104
sgRNA knockout: sgNFE2L2, 100 nM | 87.8
sgRNA knockout: sgNFE2L2, 1000 nM | 97.6
sgRNA knockout: sgNFE2L2, 10000 nM | 85.9
sgRNA knockout: sgSLC35F2, 10 nM | 107
sgRNA knockout: sgSLC35F2, 100 nM | 90.8
sgRNA knockout: sgSLC35F2, 1000 nM | 104
sgRNA knockout: sgSLC35F2, 10000 nM | 105
sgRNA knockout: sgXBP1, 10 nM | 106
sgRNA knockout: sgXBP1, 100 nM | 92
sgRNA knockout: sgXBP1, 1000 nM | 102
sgRNA knockout: sgXBP1, 10000 nM | 93.88

Nc1ccn([C@@H]2O[C@H](CO)[C@@H](O)C2(F)F)c(=O)n1 [Gemcitabine]
Details | relative cell number
sgRNA knockout: sgATF3, 10 nM | 20.9
sgRNA knockout: sgATF3, 100 nM | 13
sgRNA knockout: sgATF3, 1000 nM | 11.9
sgRNA knockout: sgATF3, 10000 nM | 12.5
sgRNA knockout: sgATF4, 10 nM | 19.41
sgRNA knockout: sgATF4, 100 nM | 12.2
sgRNA knockout: sgATF4, 1000 nM | 13.2
sgRNA knockout: sgATF4, 10000 nM | 12.9
sgRNA knockout: sgATF6, 10 nM | 19.9
sgRNA knockout: sgATF6, 100 nM | 15
sgRNA knockout: sgATF6, 1000 nM | 12.3
sgRNA knockout: sgATF6, 10000 nM | 13.3
sgRNA knockout: sgATG7, 10 nM | 21.4
sgRNA knockout: sgATG7, 100 nM | 11.7
sgRNA knockout: sgATG7, 1000 nM | 13.4
sgRNA knockout: sgATG7, 10000 nM | 11.2
sgRNA knockout: sgERN1, 10 nM | 24.5
sgRNA knockout: sgERN1, 100 nM | 10.2
sgRNA knockout: sgERN1, 1000 nM | 13.4
sgRNA knockout: sgERN1, 10000 nM | 12.4
sgRNA knockout: sgHSF1, 10 nM | 31.5
sgRNA knockout: sgHSF1, 100 nM | 18.3
sgRNA knockout: sgHSF1, 1000 nM | 14.1
sgRNA knockout: sgHSF1, 10000 nM | 13.5
sgRNA knockout: sgHSF2, 10 nM | 21.6
sgRNA knockout: sgHSF2, 100 nM | 12.9
sgRNA knockout: sgHSF2, 1000 nM | 12.6
sgRNA knockout: sgHSF2, 10000 nM | 13.8
sgRNA knockout: sgKEAP1, 10 nM | 26
sgRNA knockout: sgKEAP1, 100 nM | 12.3
sgRNA knockout: sgKEAP1, 1000 nM | 15.3
sgRNA knockout: sgKEAP1, 10000 nM | 17.2
sgRNA knockout: sgNFE2L2, 10 nM | 16.1
sgRNA knockout: sgNFE2L2, 100 nM | 10.6
sgRNA knockout: sgNFE2L2, 1000 nM | 10.6
sgRNA knockout: sgNFE2L2, 10000 nM | 10.3
sgRNA knockout: sgSLC35F2, 10 nM | 22.2
sgRNA knockout: sgSLC35F2, 100 nM | 11.8
sgRNA knockout: sgSLC35F2, 1000 nM | 14.7
sgRNA knockout: sgSLC35F2, 10000 nM | 13.2
sgRNA knockout: sgXBP1, 10 nM | 21.8
sgRNA knockout: sgXBP1, 100 nM | 11.5
sgRNA knockout: sgXBP1, 1000 nM | 16.5
sgRNA knockout: sgXBP1, 10000 nM | 11

Cc1cc2c(C(C)C)c(O)c(O)c(C=O)c2c(O)c1-c1c(C)cc2c(C(C)C)c(O)c(O)c(C=O)c2c1O [Gossypol]
Details | relative cell number
sgRNA knockout: sgATF3, 10 nM | 99.7
sgRNA knockout: sgATF3, 100 nM | 93.1
sgRNA knockout: sgATF3, 1000 nM | 102
sgRNA knockout: sgATF3, 10000 nM | 26.8
sgRNA knockout: sgATF4, 10 nM | 99
sgRNA knockout: sgATF4, 100 nM | 95.9
sgRNA knockout: sgATF4, 1000 nM | 103
sgRNA knockout: sgATF4, 10000 nM | 28.1
sgRNA knockout: sgATF6, 10 nM | 92.817
sgRNA knockout: sgATF6, 100 nM | 90.4
sgRNA knockout: sgATF6, 1000 nM | 102.6
sgRNA knockout: sgATF6, 10000 nM | 34.1
sgRNA knockout: sgATG7, 10 nM | 99
sgRNA knockout: sgATG7, 100 nM | 94.3
sgRNA knockout: sgATG7, 1000 nM | 103
sgRNA knockout: sgATG7, 10000 nM | 25.9
sgRNA knockout: sgERN1, 10 nM | 108
sgRNA knockout: sgERN1, 100 nM | 94.2
sgRNA knockout: sgERN1, 1000 nM | 106
sgRNA knockout: sgERN1, 10000 nM | 27.1
sgRNA knockout: sgHSF1, 10 nM | 125
sgRNA knockout: sgHSF1, 100 nM | 90.5
sgRNA knockout: sgHSF1, 1000 nM | 96.43
sgRNA knockout: sgHSF1, 10000 nM | 27.2
sgRNA knockout: sgHSF2, 10 nM | 103
sgRNA knockout: sgHSF2, 100 nM | 100
sgRNA knockout: sgHSF2, 1000 nM | 101
sgRNA knockout: sgHSF2, 10000 nM | 29.3
sgRNA knockout: sgKEAP1, 10 nM | 100
sgRNA knockout: sgKEAP1, 100 nM | 121
sgRNA knockout: sgKEAP1, 1000 nM | 125
sgRNA knockout: sgKEAP1, 10000 nM | 32.6
sgRNA knockout: sgNFE2L2, 10 nM | 97.7
sgRNA knockout: sgNFE2L2, 100 nM | 86.4
sgRNA knockout: sgNFE2L2, 1000 nM | 101
sgRNA knockout: sgNFE2L2, 10000 nM | 24.7
sgRNA knockout: sgSLC35F2, 10 nM | 106
sgRNA knockout: sgSLC35F2, 100 nM | 95.4
sgRNA knockout: sgSLC35F2, 1000 nM | 97.3
sgRNA knockout: sgSLC35F2, 10000 nM | 27.3
sgRNA knockout: sgXBP1, 10 nM | 102
sgRNA knockout: sgXBP1, 100 nM | 92.4
sgRNA knockout: sgXBP1, 1000 nM | 101
sgRNA knockout: sgXBP1, 10000 nM | 26.9
